# Source: the supplement of paper PMC12578635
# ± gives the standard deviation of the averaged measurements. The list shows a part of the results. Single values are uncertain, as repeats are few or missing.
# Tested on: RAW 264.7 macrophages infected with S. aureus JE2-lux
# Assay: host macrophage viability (CellTiter-Fluor) relative to DMSO vehicle; higher = more viable host cells
# Settings: 10 µM; treatment time 4 h; gentamicin 50 µg/ml
row,SMILES,host macrophage viability
1,Cc1ccccc1NC(=O)CSc1cc[nH]c(=O)n1,117%
2,COc1cccc(NC(=O)CCc2c(C)nn(-c3nc(C)c(C)s3)c2O)c1,115%
3,CC1(C)CC(=O)c2sc(NC(=O)c3cc(-c4cccs4)nc4ccccc34)nc2C1,110%
4,Cc1cc(C)c(S(=O)(=O)Nc2cnc(N3CCNCC3)c(C(=O)NC3CC3)c2)cc1C,119%
5,COc1cc(OC)c(NC(=O)C2CCCN(c3nc(C)nc4oc(C)c(C)c34)C2)cc1Cl (stereo not given),94.8%
6,N#Cc1c(N)nc(SCC(=O)Nc2ccccc2)c(C#N)c1-c1ccccc1,106%
7,COC(=O)c1ccccc1NS(=O)(=O)c1cccc2cccnc12,123%
8,COc1ccc(NC(=O)Nc2nc(SCC(=O)C(C)(C)C)ns2)cc1,76%
9,CCc1cccc(C)c1NC(=O)CSc1nnc2ccc(C(=O)Nc3cccc(C)c3)cn12,119%
10,CCc1cc(-c2csc(S(=O)(=O)N3CC=C(c4ccccc4)CC3)c2)on1,93.8%
11,Cc1ccc(-c2nc3sc(N4CCN(C(=O)c5cnccn5)CC4)nn3c2NC2CCCC2)cc1,104%
12,COc1ccc(NC(=O)C2CCN(C(=O)Nc3cccc(Cl)c3)CC2)cc1OC,118%
13,COc1ccc2[nH]cc(CCNC(=O)c3ccc4nnc(C)n4c3)c2c1,114%
14,Cc1nc(N2CCCC2)ncc1C(=O)NC(c1ccccc1)c1cccnc1 (stereo not given),104%
15,CCCn1c(=O)c2cc(F)ccc2n2c(=S)[nH]nc12,120%
16,CNc1n[nH]c(N)c1-c1nc(-c2ccc(OC)cc2)no1,94.6%
17,Cc1ccc2nc(Nc3ccc(Cl)cc3)c(C=O)c(=O)n2c1,118%
18,COc1ccc(CC(=O)Nc2c3c(nn2-c2ccc(C)cc2)CSC3)cc1OC,103%
19,CCOC(=O)c1ccc(N2C(=O)C3Sc4[nH]c(=O)sc4C(/C=C/c4ccccc4)C3C2=O)cc1 (stereo not given),112%
20,Cc1nc2cccc(NC(=O)c3cc(=O)c4cc(C)c(C)cc4o3)c2[nH]1,123%
21,Cc1ccc(S(=O)(=O)NCc2ccc3[nH]c(C)cc3c2)cc1,124 ± 19%
22,COCCn1ccc2nc(C)c(C(=O)NCc3ccc(Br)cc3)cc2c1=O,122%
23,CCN(CC)C(=O)CSc1ccccc1[N+](=O)[O-],102%
24,O=C(CC1(O)C(=O)Nc2ccccc21)c1cccc(-n2cccc2)c1 (stereo not given),111%
25,O=C(NCC(c1ccc(Cl)cc1)N1CCCCC1)c1cc(-c2ccc3c(c2)OCCO3)on1 (stereo not given),99.5%

row,SMILES,host macrophage viability
1,CCN(CC)c1cc(CNC(=O)Nc2cc(OC)cc(OC)c2)ccn1,109%
2,CCN1CCN(C(=O)c2nn(-c3ccc(F)cc3)c3c(=O)n(C)cnc23)CC1,95.9%
3,COc1ccc(C)cc1NC(=O)C1CCN(C(=O)Nc2ccccc2)CC1,112%
4,N#C/C(=C/Nc1ccc(F)cc1[N+](=O)[O-])c1nc(-c2ccc(F)cc2)cs1,112 ± 8.1%
5,Cc1cc(=O)n2nc(CN(C(=O)C(C)C)c3ccccc3)nc2[nH]1,91.4%
6,C=CCNC(=O)C(=O)Nc1ccc2c(c1)N(S(=O)(=O)c1cccs1)CCC2,89.6%
7,Cc1nn2c(SCC(=O)c3cccc([N+](=O)[O-])c3)nnc2[nH]c1=O,105%
8,N#Cc1ccc(C(=O)Nc2cccc3c2C(=O)NC3=O)cc1,109%
9,CCN(CC)C(=O)c1sc2nc3c(cc2c1N)C(=O)CC(C)(C)C3,117%
10,CCNC(=O)CC1Sc2ccc(C(F)(F)F)cc2NC1=O (stereo not given),136%
11,CSc1nnc(C)c(=O)n1COC(=O)c1ccc(Cl)c([N+](=O)[O-])c1,103%
12,Cc1ccc2c(c1)C(c1ccc(F)cc1)N(C(=O)c1cc3ccccc3oc1=O)CC(=O)N2 (stereo not given),121%
13,O=C1Nc2ccc(Br)cc2/C1=C1/SC(=S)N(NC(=O)c2ccncc2)C1=O,90.8%
14,O=C(CNCc1cccnc1)Nc1ccc2c(c1)OCO2,128%
15,COc1ccc(Br)cc1-c1nc(Cn2nc(C)c3c(C)onc3c2=O)c(C)o1,129%
16,O=C(O)c1ccc(NS(=O)(=O)c2cc3c4c(cccc4c2)C(=O)NC3=O)cc1,117%
17,COc1ccc2nc(-n3nc(C)c4c3NC(=O)CC4c3cc(F)ccc3F)sc2c1 (stereo not given),118%
18,O=C(CCS(=O)(=O)c1ccc(F)cc1)Nc1ncc(S(=O)(=O)c2ccc([N+](=O)[O-])cc2)s1,93.2%
19,COc1cc(NC(=O)c2cccc3nccnc23)ccc1NC(=O)C1CCCCC1,117%
20,Clc1ccc(-n2cc(-c3ccccc3)c3c(NCCCn4ccnc4)ncnc32)cc1,117%
21,COc1ccccc1OCC(=O)N1c2ccccc2CC1C(N)=O (stereo not given),120%
22,Cn1c(=O)c2c(SCC(=O)Nc3cccc(F)c3)nc(-c3ccc([N+](=O)[O-])cc3)nc2n(C)c1=O,112.4 ± 0.91%
23,CC(C)NC(=O)c1ccc(-c2ccc(F)cc2)nc1,99.8%
24,Cc1ccc(OCC(O)Cn2c(N(C)Cc3ccccc3)nc3c2c(=O)[nH]c(=O)n3C)cc1C (stereo not given),141%
25,CC1(C)COc2ccc(NC(=O)CCc3ccccc3)cc2NC1=O,120%

row,SMILES,host macrophage viability
1,COc1cccc(NC(=O)c2cnc(-c3ccc(C)cc3)nc2C)c1,102%
2,Nc1c(-c2nc(-c3ccc(Br)cc3)cs2)c2ccccn2c1C(=O)c1cccs1,112%
3,N#CC1=C(SCC(=O)N(c2ccccc2)c2ccccc2)NC(=O)CC1c1ccco1 (stereo not given),119%
4,C#CCSc1nc2ccccc2n1C(=O)c1ccc(S(=O)(=O)N2CCOCC2)cc1,99%
5,O=C1c2ccccc2C(=O)c2cc(S(=O)(=O)Nc3ccncc3)ccc21,120%
6,CCOc1ccc2nc(NC(=O)c3cc4c(=O)n5cccc(C)c5nc4s3)sc2c1,103%
7,COC(=O)c1sc2ccccc2c1NC(=O)COc1ccc(Cl)cc1Cl,111 ± 8.7%
8,COc1ccccc1NC(=O)Cn1c(C)nc2ccc(NC(=O)c3ccccc3)cc2c1=O,96%
9,CCCc1cc(=O)[nH]c2nnc(SCc3cccc([N+](=O)[O-])c3)n12,96.3%
10,O=C(Nc1nc2c(s1)CCc1ccccc1-2)c1ccc(N2C(=O)CCC2=O)cc1,106%
11,CCC(C)Nc1nc2c(C)cccn2c(=O)c1/C=N/c1ccc([N+](=O)[O-])cc1Cl (stereo not given),126%
12,Cc1cc(C)cc(-n2c(SCC(=O)Nc3ccc(C(N)=O)cc3)nc3c(c2=O)SCC3)c1,111%
13,O=C1N=C(N2CCN(c3ccccc3)CC2)S/C1=C/c1ccc(O)cc1,117 ± 6.7%
14,Oc1ccc(-c2n[nH]cc2-c2nc3ccccc3s2)c(O)c1,129%
15,CCOC(=O)c1c(-c2ccc(OC)cc2)csc1NC(=O)CSc1nnc2ccccn12,128%
16,COc1ccc(Cl)c2sc(N(Cc3cccnc3)C(=O)c3cccc(S(C)(=O)=O)c3)nc12,122%
17,Cc1n[nH]c2c1C1(C(=O)Nc3ccccc31)C(C#N)=C(N)O2 (stereo not given),116%
18,CCc1cccc(C)c1NC(=O)C1CCCN1C(=O)Nc1ccc(C)cc1 (stereo not given),116%
19,Cc1nc2c(ccc3nc(NC(=O)c4ccccc4I)sc32)s1,117 ± 12%
20,CNC(=O)c1ccsc1NC(=O)c1ccc(S(=O)(=O)N(C)C)cc1,109%
21,Nc1ncnc(Sc2ccc(Cl)cc2)c1[N+](=O)[O-],99.7%
22,Cc1ccc(S(=O)(=O)c2nc(/C(C#N)=C\c3ccccc3)sc2Cl)cc1,134%
23,Cc1ccc(C)c2[nH]c(=O)c(CCNC(=O)c3ccc([N+](=O)[O-])cc3)cc12,103%
24,COC(=O)c1ccc(C(=O)Nc2ccc3nc(SC)sc3c2)cc1,98.6 ± 10%
25,COc1ccc(Cl)c2sc(N3CCN(C(=O)C4COc5ccccc5O4)CC3)nc12 (stereo not given),115%

# Reprinted from the entries so far for reference:
row,SMILES,host macrophage viability
19,Cc1nc2c(ccc3nc(NC(=O)c4ccccc4I)sc32)s1,117 ± 12%
20,CNC(=O)c1ccsc1NC(=O)c1ccc(S(=O)(=O)N(C)C)cc1,109%
21,Nc1ncnc(Sc2ccc(Cl)cc2)c1[N+](=O)[O-],99.7%

# Further structures

row,SMILES,host macrophage viability
1,Cn1nc(C(=O)N2CCOCC2)c2c1CCN(S(=O)(=O)c1cccc3nsnc13)C2,123%
2,O=C(Nc1ccc2c(c1)C(=O)NC2=O)c1ccc(-c2nc3ccccc3s2)s1,131%
3,CCOC(=O)CCc1c(C)[nH]c2nc(CO)nn2c1=O,87.8%
4,Cc1c(C)n2c(SCc3ccc(C(F)(F)F)cc3)nnc2[nH]c1=O,113%
5,O=C(Nc1cccc(I)c1)/C(O)=C1\C(=O)Nc2ccccc21,114 ± 2.3%
6,O=C1C2C3CC(C2C(=O)N1c1ccccc1)C1C(c2ccc(O)cc2)c2sc(=O)[nH]c2SC31 (stereo not given),120%
7,CCOC(=O)C1CCN(S(=O)(=O)CCNC(=O)c2ccc3c(c2)OCO3)CC1,125%
8,O=C(CC1Nc2ccccc2NC1=O)Nc1cccc(C(=O)O)c1 (stereo not given),109%
9,O=C(CSc1nc2ccccc2o1)OCC(=O)c1ccc(F)cc1,109 ± 7.5%
10,COc1ccc2nc(NC(=O)Cn3c(=O)c4cnc(-c5ccccc5)nc4n(C)c3=O)sc2c1,133%
11,C=CCn1c(SCC(=O)Nc2ccc3c(c2)OCCO3)nc2scc(-c3ccco3)c2c1=O,100%
12,O=C(CC(C(=O)O)N1CCNCC1)Nc1ccc(Br)cc1 (stereo not given),116%
13,CCc1ccc(NC(=O)CS(=O)CC(=O)Nc2ccc(-n3cnnn3)c(C)c2)cc1 (stereo not given),101%
14,COc1ccc(C(=O)CSc2nc(=O)n(Cc3cccnc3)c3c2CCC3)cc1,122%
15,COc1cccc(C(=O)CC2(O)C(=O)Nc3c(C)cccc32)c1 (stereo not given),97.4%
16,CCn1c(=O)c(N2CCN(C(=O)c3ccc(F)c(Cl)c3)CC2)c(C)n(-c2ccccc2)c1=O,112%
17,COc1cc(/C=N/Nc2ncnc3[nH]cnc23)cc(OC)c1OC,93.7%
18,NS(=O)(=O)c1ccc(CCNC(=O)C(=O)Nc2cc3c4c(c2)CC(=O)N4CCC3)cc1,118%
19,Cc1nc2c(C)cccc2cc1C(=O)Nc1cccc(C(=O)N2CCCCC2)c1,121%
20,C#CCn1/c(=N/C(=O)CCCC)sc2cc(S(N)(=O)=O)ccc21,98.1%
21,O=C(NCc1cccnc1)c1cnc2n(c1=O)CCS2,130%
22,COC(=O)Cn1/c(=N/C(=O)c2ccccc2C)sc2cc(S(C)(=O)=O)ccc21,117%
23,O=C(CSc1ccc([N+](=O)[O-])cc1[N+](=O)[O-])NC1CCS(=O)(=O)C1 (stereo not given),109%
24,CC(C)c1cc(C(=O)N2CCc3ccccc32)nn1C1CCS(=O)(=O)C1 (stereo not given),117%
25,N#C/C(=C\c1c[nH]c2ccc(Br)cc12)C(=O)N1CCOCC1,94.3%
